17 targets from the supplement of paper PMC12067093, “Discovery and optimisation of a covalent ligand for TRIM25 and its application to targeted protein ubiquitination” (Chemical Science, 2025) can be followed below.

This is one part of the list.
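Also: competitive chemoproteomic profiling in live THP-1 cells with an iodoacetamide desthiobiotin (IA-DTB) probe, comparing probe-labelled peptide intensities in compound-treated cells against DMSO-treated controls.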

Compound in this experiment: CC1Cc2ccccc2N1C(=O)C1CCCN(C1)C(=O)CCl (mixture of isomers) [TRIM25 ligand 11 (diastereomer mixture)]
The experiment is described as follows: probe-labelled cysteine peptide fold change vs DMSO (competition) (log2 fold change); higher = less target engagement (more negative = stronger competition). As to conditions: 50 µM; THP-1; incubation time: 4 h.
Turning to “HELZ_P42694_696_ILICTHSNSAADLYIK (UniProt P42694)”, the “probe-labelled cysteine peptide fold change” value was found to be 0.287. As for “HEATR6_Q6AI08_232_SSDMDDITFCMLLQNALK (UniProt Q6AI08)”, the “probe-labelled cysteine peptide fold change” value was -0.0445. “HCFC1_P51610_227_LVIYGGMSGCR (UniProt P51610)”: the “probe-labelled cysteine peptide fold change” value was -0.202. In the case of “HDAC3_O15379_59_MIVFKPYQASQHDMCR (UniProt O15379)”, the “probe-labelled cysteine peptide fold change” value was -0.144.

With “HK3_P52790_634_ASDCEGQDVVSLLR (UniProt P52790)”, the “probe-labelled cysteine peptide fold change” value was 0.0237. As to “HK1_P19367_628_ATDCVGHDVVTLLR (UniProt P19367)”, the “probe-labelled cysteine peptide fold change” value was found to be 0.037. In the case of “HERC2_O95714_914_ALSALLPCAVSGNEVNISPGRR (UniProt O95714)” it was -0.0151; in that of “HCFC2_Q9Y5Z7_659_VAAINGCGIGPFSK (UniProt Q9Y5Z7)”, -0.199; in that of “HELB_Q8NG08_368_AIAFSICDLMK (UniProt Q8NG08)”, -0.0148. As to “HDAC10_Q969S8_23_LLWDDPECEIERPER (UniProt Q969S8)”, the “probe-labelled cysteine peptide fold change” value is -0.127. In the case of “HAUS7_Q99871_119_LGHELMLCAPDDQELLK (UniProt Q99871)”, the “probe-labelled cysteine peptide fold change” value was 0.164. As for “HDAC5_Q9UQL6_982_CFGHLTR (UniProt Q9UQL6)”, the “probe-labelled cysteine peptide fold change” value came out at 0.141. For the target “HMBS_P08397_261_HLEGGCSVPVAVHTAMK (UniProt P08397)”, the “probe-labelled cysteine peptide fold change” value was -0.101. HLA-DRA_P01903_132_EPNVLICFIDK: the “probe-labelled cysteine peptide fold change” value is 0.183. Turning to “HDLBP_Q00341_878_RIQEIIEDLEAQVTLECAIPQK (UniProt Q00341)”, the “probe-labelled cysteine peptide fold change” value was -0.109. For the target “HINT1_P49773_84_CAADLGLNK (UniProt P49773)”, the “probe-labelled cysteine peptide fold change” value is -0.0398.

“HAUS6_Q7Z4H7_443_QHNQENGCR (UniProt Q7Z4H7)”: the “probe-labelled cysteine peptide fold change” value turned out to be 0.0621.
